# Measured values reported in PubChem BioAssay AID485314 (National Center for Advancing Translational Sciences (NCATS), 2010).
# Screen size: about 340,000 compounds; about 4,500 (1.3%) were called active. The shares of active, inactive and inconclusive entries below differ from those in the screen. Calls come from the whole dose curve; as a rule, active = well fitted inhibition curve with a large enough effect; inconclusive = small, poorly fitted or top-dose-only effect, or another doubt; inactive = no such curve, though single readings can be large or run the other way. A potency beside an inconclusive call is a rough fit, not a confirmed value.
# Molecular target: DNA polymerase beta (Homo sapiens) (UniProt P06746)
# Assay: qHTS Assay for Inhibitors of DNA Polymerase Beta
# Details: Pol beta primer extension/strand displacement, fluorescence kinetic; activity change, negative = inhibition: at 114 µM (top of the series)
# How it was run: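 Curves were derived by four-parameter Hill fits of normalized qHTS data. The kinetic fluorescent primer-extension read was taken at 0 and 10 min after 50 nM substrate, following a 15 min room-temperature preincubation of 10 nM enzyme with compounds.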
# % is set by controls: 0 for no effect and ±100 for the full control effect; potency is the fitted concentration of half-maximal effect.
Compound,Potency,"activity change, negative = inhibition"
CCOc1ccc(-c2cc(C)n3nc(C(=O)Nc4cc(Cl)ccc4O)cc3n2)cc1,active: 7.08 µM,
C(=N\Nc1cc(N2CCCCC2)ncn1)/c1ccco1,"inconclusive: 35.5 µM [inhibitor, full curve, poor fit]",
COc1ccc(/C=N\NC(=O)C2C(=O)NCC2c2ccccc2)cc1O (configuration not stated),inactive,
O=C(N/N=C/C(Cl)=C\c1ccccc1)c1ccco1,"inconclusive: 63.1 µM [inhibitor, single point]",
O=C(NCCC1=CCCCC1)c1ccc2c(c1)ncn2-c1cccc(Cl)c1,inactive,
CC1=Nn2c(nnc2-c2n[nH]c3c2CCC3)SC1,inactive,
COc1cccc(NC(=O)c2ccc3c(=O)n4nc(Nc5ccccc5OC)sc4nc3c2)c1,inactive,
CC(/C=N/NC(=O)CSc1nc2ccccc2n1C)=C\c1ccco1,"inconclusive: 39.8 µM [inhibitor, partial curve, poor fit]",
COCCCNC(=O)c1ccc(Cn2c(=O)c3ccccc3n(Cc3ccc(C)cc3)c2=O)cc1,"inconclusive: 89.1 µM [inhibitor, single point]",
CCOC(=O)c1ccc(NC(=O)CC2Nc3cc(C)c(C)cc3NC2=O)cc1 (configuration not stated),"inconclusive: 0.282 µM [inhibitor, full curve]",
CCn1cc(C(=O)NCC(OC)OC)c(=O)c2cc(S(=O)(=O)N(C)C3CCCCC3)ccc21,"inconclusive: 89.1 µM [inhibitor, single point]",
CCOC1=C/C(=C/c2c(N)n3nc(-c4ccccc4)sc3nc2=O)C=CC1=O,active: 35.5 µM,
O=C(Nc1ccc(F)cc1)c1ccc(=O)[nH]n1,inactive,
Nc1ccc(S(=O)(=O)NC(Cc2ccccc2)C(=O)O)cc1 (configuration not stated),"inconclusive: 14.1 µM [inhibitor, full curve, poor fit]",
Cc1cccc(-n2cnc3c(c2=O)c2nc4ccccc4nc2n3Cc2ccco2)c1,active: 39.8 µM,
C=CCN(CC=C)C(=O)Cc1ccc(F)cc1,inactive,
COc1cc(C)c(C(N)=O)c(OC)n1,"inconclusive: 17.8 µM [inhibitor, partial curve, poor fit]",
Cc1nc2sc(C(c3ccco3)N3CCN(C(c4ccccc4)c4ccccc4)CC3)c(O)n2n1 (configuration not stated),"inconclusive: 28.2 µM [inhibitor, partial curve, poor fit]",
CC(=O)c1c(C(C)=O)c(C)n(-c2ccc(C(=O)O)cc2)c1C,inactive,
Brc1cc2c(cc1C1Nc3ccccc3C3C=CCC31)OCO2 (configuration not stated),"inconclusive: 79.4 µM [inhibitor, single point]",
Cc1ccc(NC(=O)CNC(=O)c2ccco2)cc1,"inconclusive: 3.98 µM [inhibitor, single point]",
O=c1ccc2cc(S(=O)(=O)NCc3ccc(Cl)cc3)ccc2[nH]1,active: 11.2 µM,
COc1ccc(NC(=O)/C=C/c2ccc(OC)c(OC)c2)cn1,"inconclusive: 70.8 µM [inhibitor, single point]",
Brc1ccccc1OCCN1CCOCC1,"inconclusive: 100 µM [inhibitor, single point]",

Compound,Potency,"activity change, negative = inhibition"
CSc1ccc(CNC(=O)c2ccc3c(c2)N(C)C(=O)C2CCCCN32)cc1 (configuration not stated),"inconclusive: 89.1 µM [inhibitor, single point]",
Cc1cccc(OCC(=O)Nc2cccc(C(=O)OCc3cc(=O)n4c(C)csc4n3)c2)c1,inactive,
O=C1NCCN1Cc1ccccc1F,"inconclusive: 25.1 µM [inhibitor, full curve]",
COc1ccc(-c2cn3nc(SCC(=O)Nc4ccccc4F)ccc3n2)cc1,inactive,
Cc1cccc(NC(=S)N(C)C2CCCCC2)c1,"inconclusive: 100 µM [inhibitor, single point]",
O=C(Nc1cccnc1Cl)c1ccc(=O)oc1,active: 12.6 µM,
COC(=O)c1ccc(Sc2ccccc2NS(=O)(=O)c2ccc(C)cc2)nc1,"inconclusive: 7.94 µM [inhibitor, full curve, poor fit]",
CCn1c(=O)c(CCC(=O)N2CCOCC2)c(C)c2c(C)nn(-c3ccccc3)c21,inactive,
COc1ccc(OC)c(CCNC(=O)c2cccc(NC3=NC4CS(=O)(=O)CC4S3)c2)c1 (configuration not stated),"inconclusive: 0.112 µM [inhibitor, full curve, poor fit]",
CC(=O)c1ccc(NC(=O)CSc2ccc(-c3ccco3)nn2)cc1,active: 28.2 µM,
Cc1ccc(C)c(N2CCN(S(=O)(=O)c3ccc(F)c(C(=O)Nc4ccc(Cl)cc4Cl)c3)CC2)c1,inactive,
O=C1CC(c2ccccc2)CC(=O)C1Sc1ccc(Cl)cc1 (configuration not stated),"inconclusive: 79.4 µM [inhibitor, partial curve]",
CCOC(=O)C1=C(NC(=S)NC(=O)c2ccccc2)c2ccccc2CC1C(C)C (configuration not stated),inactive,
CCOC(=O)Cn1ccc(NC(=O)c2ccc3c(c2)OCO3)n1,inactive,
CC(=O)OCC1=C(C(=O)O)N2C(=O)C(NC(=O)CCn3nc(C(F)(F)F)c(Br)c3C3CC3)C2SC1 (configuration not stated),inactive,
CCN(CC)C(=O)c1sc2c(c1C)c(=O)n(Cc1ccccc1)c(=O)n2CC(=O)Nc1ccc(OC)cc1,"inconclusive: 79.4 µM [inhibitor, partial curve]",
COC(=O)c1ccc(-n2nnc(-c3nsc(NC(=O)c4ccc(Cl)cc4)n3)c2C)cc1,active: 56.2 µM,
O=C(N/N=C/C=C\c1ccc([N+](=O)[O-])cc1)c1cccnc1,"inconclusive: 89.1 µM [inhibitor, single point]",
O=C(COc1ccc2ccccc2c1Br)NNC(=O)Nc1ccccc1,"inconclusive: 7.94 µM [inhibitor, full curve]",
O=C(Cn1nc(C(=O)O)c2ccccc2c1=O)NC12CC3CC(CC(C3)C1)C2,inactive,
Cc1cc(C)cc(N(CC(=O)Nc2ccc(C)cc2Cl)S(=O)(=O)c2c(C)[nH]c(=O)[nH]c2=O)c1,"inconclusive: 1.12 µM [inhibitor, full curve, poor fit]",
CN1C(=O)[C@@H]2[C@@H]3C[C@@H]([C@H]4ON=C(c5ccccc5OCC#N)[C@@H]34)[C@@H]2C1=O,"inconclusive: 0.158 µM [inhibitor, full curve, poor fit]",
CCN(CC)c1ccc(/C=N/Nc2nc3ccccc3[nH]2)c(O)c1,"inconclusive: 31.6 µM [inhibitor, partial curve, poor fit]",
COC(=O)c1sccc1NC(=O)CC1C(=O)NCCN1C(=O)Nc1cc(Cl)ccc1OC (configuration not stated),"inconclusive: 5.01 µM [inhibitor, full curve]",

# Complete entries as entered above:
# CC(=O)OCC1=C(C(=O)O)N2C(=O)C(NC(=O)CCn3nc(C(F)(F)F)c(Br)c3C3CC3)C2SC1 (configuration not stated) is listed as Potency: inactive
# CSc1ccc(CNC(=O)c2ccc3c(c2)N(C)C(=O)C2CCCCN32)cc1 (configuration not stated) is listed as Potency: inconclusive: 89.1 µM [inhibitor, single point]

# (cont.)

Compound,Potency,"activity change, negative = inhibition"
COc1ccc(CN(CCO)CCO)cc1[N+](=O)[O-],inactive,
CCC(NC(=O)Cc1c(C)c2ccc(OC)c(C)c2oc1=O)C(=O)NC(Cc1ccc(Cl)cc1)C(=O)O (configuration not stated),"inconclusive: 89.1 µM [inhibitor, single point]",
CNC(=S)N(CCc1ccc(S(N)(=O)=O)cc1)C1CC(=O)N(c2ccccc2F)C1=O (configuration not stated),"inconclusive: 1.58 µM [inhibitor, full curve]",
Cc1ccccc1NC(=O)c1c2c(nc3ccccc13)CCC2,"inconclusive: 12.6 µM [inhibitor, full curve]",
COC(=O)CN(c1ccc(C)cc1)S(=O)(=O)c1ccc(F)cc1,"inconclusive: 4.47 µM [inhibitor, single point]",
CC(/C=C/c1ccco1)=N/NC(=O)CNc1ccccc1C,"inconclusive: 79.4 µM [inhibitor, single point]",
Cc1nc2sc(C(c3ccco3)N3CCN(c4cccc(Cl)c4)CC3)c(O)n2n1 (configuration not stated),"inconclusive: 14.1 µM [inhibitor, single point]",
COc1ccc(C)cc1NS(=O)(=O)c1cc(Br)cc2c1N(C(C)=O)C(C)C2 (configuration not stated),inactive,
Cc1cc(N2CCOCC2)n2nc(C)c(-c3ccc(Cl)cc3)c2n1,"inconclusive: 31.6 µM [inhibitor, single point]",
O=C(Cn1cc(SCc2ccc(Cl)cc2)c2ccccc21)N1CCCC1,inactive,
CC1(C(=O)Oc2ccccc2)Cc2ccccc2C(=O)O1 (configuration not stated),"inconclusive: 5.01 µM [inhibitor, single point]",
S=c1[nH]nc(CCc2nc3ccccc3[nH]2)n1-c1cccc(Cl)c1,"inconclusive: 15.8 µM [inhibitor, partial curve]",
Cc1ccc(C)c(N2CCN(C(c3ccccc3)c3nnc(-c4ccccc4)o3)CC2)c1 (configuration not stated),inactive,
COCCn1c(SCC(=O)N2CCOCC2)nc2c(c1=O)SCC2,,inconclusive: -41.4% [inhibitor]
O=C(CCl)Nc1cccc(Oc2ccccc2)c1,"inconclusive: 63.1 µM [inhibitor, single point]",
CCOc1ccc(NS(=O)(=O)c2cnc(Cl)c(Cl)c2)cc1,"inconclusive: 70.8 µM [inhibitor, single point]",
Cc1cc(-c2csc(N)n2)c(C)n1C,inactive,
CNS(=O)(=O)c1cccc(C(=O)OCC(=O)NC(C)CCc2ccccc2)c1 (configuration not stated),"inconclusive: 89.1 µM [inhibitor, single point]",
CCc1ccc2oc(-c3ccc(NC(C)=O)cc3)nc2c1,"inconclusive: 25.1 µM [inhibitor, full curve, poor fit]",
CCOC(=O)C1Nc2ccc(C(=O)O)cc2C2C=CCC12 (configuration not stated),active: 15.8 µM,
CCOc1cc(/C=N/N=C2/NC(=O)C(CC(=O)O)S2)ccc1OCc1ccccc1Cl (configuration not stated),active: 28.2 µM,
COCCn1cnnc1SCC(=O)Nc1sccc1C(N)=O,"inconclusive: 10 µM [inhibitor, full curve]",
COc1ccc(CN2C(=O)N(c3ccc(OC)cc3)C(=O)C2CC(=O)Nc2ccccc2)cc1 (configuration not stated),inactive,
COc1ccccc1/C=C1/SC(=O)N(CCC(=O)Nc2ccc(S(=O)(=O)Nc3nccs3)cc2)C1=O,"inconclusive: 56.2 µM [inhibitor, partial curve]",

# In a second layout: results already given.
Compound	Potency	activity change, negative = inhibition
CC(=O)c1c(C(C)=O)c(C)n(-c2ccc(C(=O)O)cc2)c1C	inactive	
Brc1cc2c(cc1C1Nc3ccccc3C3C=CCC31)OCO2 (configuration not stated)	inconclusive: 79.4 µM [inhibitor, single point]	
Cc1ccc(NC(=O)CNC(=O)c2ccco2)cc1	inconclusive: 3.98 µM [inhibitor, single point]	
O=c1ccc2cc(S(=O)(=O)NCc3ccc(Cl)cc3)ccc2[nH]1	active: 11.2 µM	
COc1ccc(NC(=O)/C=C/c2ccc(OC)c(OC)c2)cn1	inconclusive: 70.8 µM [inhibitor, single point]	
Brc1ccccc1OCCN1CCOCC1	inconclusive: 100 µM [inhibitor, single point]	
CSc1ccc(CNC(=O)c2ccc3c(c2)N(C)C(=O)C2CCCCN32)cc1 (configuration not stated)	inconclusive: 89.1 µM [inhibitor, single point]	
Cc1cccc(OCC(=O)Nc2cccc(C(=O)OCc3cc(=O)n4c(C)csc4n3)c2)c1	inactive	
O=C1NCCN1Cc1ccccc1F	inconclusive: 25.1 µM [inhibitor, full curve]	
COc1ccc(-c2cn3nc(SCC(=O)Nc4ccccc4F)ccc3n2)cc1	inactive	
Cc1cccc(NC(=S)N(C)C2CCCCC2)c1	inconclusive: 100 µM [inhibitor, single point]	
O=C(Nc1cccnc1Cl)c1ccc(=O)oc1	active: 12.6 µM	
COC(=O)c1ccc(Sc2ccccc2NS(=O)(=O)c2ccc(C)cc2)nc1	inconclusive: 7.94 µM [inhibitor, full curve, poor fit]	
CCn1c(=O)c(CCC(=O)N2CCOCC2)c(C)c2c(C)nn(-c3ccccc3)c21	inactive	
COc1ccc(OC)c(CCNC(=O)c2cccc(NC3=NC4CS(=O)(=O)CC4S3)c2)c1 (configuration not stated)	inconclusive: 0.112 µM [inhibitor, full curve, poor fit]	
CC(=O)c1ccc(NC(=O)CSc2ccc(-c3ccco3)nn2)cc1	active: 28.2 µM	
Cc1ccc(C)c(N2CCN(S(=O)(=O)c3ccc(F)c(C(=O)Nc4ccc(Cl)cc4Cl)c3)CC2)c1	inactive	
O=C1CC(c2ccccc2)CC(=O)C1Sc1ccc(Cl)cc1 (configuration not stated)	inconclusive: 79.4 µM [inhibitor, partial curve]	
